From paper doi:10.1101/2024.09.05.611546
No constants are given. Whether binding was seen depends on the method and setting. For part of these data: Binding calls can cover weak binding; strength is not graded here. For part of these data: In cells and extracts the contact can be indirect. Sequences can lack the tags named with a protein.

B1: TCV P28 fused to the GAL4 activation domain (AD-P28) (protein, UniProt P17460 1-250)
chain: MPLLHTLNTALAVGLLGARYYPEVQTFLGLPDYVGHMKNVVRSVFQGSGLVVVSSDTVGVRGTYSNRGQIGSSLGCILAVPDSGADIEIDLDRLVGTEEEATSCLVEAVGSTADVPRRRVRQKGRFAMHAVNAAKLHFCGVPKPTEANRLAVSKWLVQYCKERHVVDSHIRTIVNTALPRVFTPDAEDIQVVLDLHSVRAHDHRNALAEAGKVRKWWVNLAMHPMTGRSWSRAWRRLCRLPDDQAISFVR
B2: TCV P28 fused with the N-terminal half of YFP (YN-P28) (protein, UniProt P17460 1-250)
chain: B1 chain

Columns and labels:
[1] = target: Arabidopsis Dcp1 fused to the GAL4 DNA binding domain (BD-Dcp1) (Arabidopsis thaliana) (UniProt Q9SJF3); experiment: two-hybrid
[2] = target: AtDcp1 fused with the C-terminal half of YFP (Dcp1-YC) (Arabidopsis thaliana) (UniProt Q9SJF3); experiment: split reporter

Molecule | binding [1] | binding [2]
TCV capsid protein fused to the GAL4 activation domain (AD-CP) (from UniProt P06663 1-351) | binds | 
B1 | no binding | 
B2 |  | no binding
